# Results of single-concentration screens

Mtb glucose medium: 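Whole-cell growth test on Mycobacterium tuberculosis, read after 3 days in glucose-containing 7H9 medium; the read-out is not stated. Compounds at 50 µM. Direction is inferred from retests: higher values go with more growth inhibition. Of about 69,000 compounds tested this way, about 760 (1.1%) reached 50% or more in at least one test.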
Mtb cholesterol medium: 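Phenotypic screen: M. tuberculosis growth, cholesterol and DPPC medium, 4 days; the read-out is not stated. Tested at 50 µM. Direction is inferred from retests: higher values go with more growth inhibition. Size under these conditions: about 69,000 compounds, about 370 of them at 50% or above in at least one test.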

Values are the deposited “Percent Effect”, in %.
The record does not define 0% and 100%; most values in the screen are far below 50% and negative numbers occur (in some assays of this library far below -100).
This is an unselected part of the compounds tested.
Two or more numbers in one place are separate tests of the same structure; such repeats can differ widely.

- [H][C@@]12CCCO[C@]1([H])[C@H](OCC(=O)N(C)C)CN2Cc1ccccc1 | Mtb glucose medium: -5.055% & -17.69%; Mtb cholesterol medium: 12.79%
- O=C(O)C(F)(F)F.O=C(O)C(F)(F)F.[H][C@@]12CCN(CC3CCOCC3)C[C@]1(COc1ncccc1F)CCO2 | Mtb glucose medium: 6.607%; Mtb cholesterol medium: -10.35%
- Cc1cc(C(=O)N2CCn3cc(CN4CCOCC4)nc3C2)no1.O=C(O)C(F)(F)F | Mtb glucose medium: -20.82%; Mtb cholesterol medium: 15% & -6.376%
- CCCn1cnnc1CNC(=O)CC1C(=O)NCCN1CC(C)(C)C (stereo unspecified) | Mtb glucose medium: -18.32%; Mtb cholesterol medium: -7.612% & -10.47%
- COc1ccc(CC2CN(Cc3cncn3C)CCO2)cc1 (stereo unspecified) | Mtb glucose medium: -0.3025%; Mtb cholesterol medium: 22.57%
- CCN1CCC2(CC1)CC(NC(=O)N(C)C)c1cc(C)ccc12.O=C(O)C(F)(F)F (stereo unspecified) | Mtb glucose medium: 30.52%; Mtb cholesterol medium: 15.81%
- Cc1oncc1C(=O)NCC(c1ccccc1Cl)N1CCOCC1 (stereo unspecified) | Mtb glucose medium: 5.3% & -0.4127%; Mtb cholesterol medium: -7.121%
- COCC(=O)N1CCN(Cc2nnc(C(C)(C)C)o2)CC1 | Mtb glucose medium: 0.5781% & -7.774%; Mtb cholesterol medium: 2.445%
- CN(Cc1ccccc1)CC(O)Cn1cnc2sccc2c1=O (stereo unspecified) | Mtb glucose medium: 12.42%; Mtb cholesterol medium: -3.757%
- CCn1cc(NC(=O)C2CCN(Cc3ccccc3C#N)CC2)cn1 | Mtb glucose medium: 11.67%; Mtb cholesterol medium: 8.976%
- COc1ccc(C)c2c1N(C(=O)c1cnc3onc(C)c3c1)CCC2 | Mtb glucose medium: 9.859%; Mtb cholesterol medium: 9.247%
- Fc1cnc(N2CCn3cc(CNc4ccccn4)nc3C2)nc1.O=C(O)C(F)(F)F.O=C(O)C(F)(F)F | Mtb glucose medium: 7.521%; Mtb cholesterol medium: 6.676%
- CN(C)C(=O)N1CC2(CCN(S(C)(=O)=O)CC2)c2ccccc21 | Mtb glucose medium: -5.675% & -14.2%; Mtb cholesterol medium: -11.39% & -8.711%
- c1ccc(-c2nc(CCNC3CCOC4(CCOCC4)C3)no2)cc1 (stereo unspecified) | Mtb glucose medium: -30.09%; Mtb cholesterol medium: -13.06%
- COc1cccc(C2(CNC(C)c3nnc(C)o3)CCCC2)c1 (stereo unspecified) | Mtb glucose medium: -10.45% & 0.04044%; Mtb cholesterol medium: 8.224%
- CC(C)CCc1nc(CN2CCOC(Cn3cncn3)C2)cs1 (stereo unspecified) | Mtb glucose medium: -25.81%; Mtb cholesterol medium: 1.288%
- O=C(O)C(F)(F)F.O=C(O)C(F)(F)F.O=C(O)C(F)(F)F.[H][C@@]12C[C@@H](Oc3cccc(F)c3)CN1CCN(Cc1ccncc1)C2 | Mtb glucose medium: 9.146%; Mtb cholesterol medium: 18.45%
- CCOc1ccc(NCC(=O)NCC(=O)N2CCCC2)c(C(F)(F)F)c1 | Mtb glucose medium: 16.02%; Mtb cholesterol medium: -1.951%
- Cn1cccc1C(=O)NCc1cnc2n1CCN(C(=O)c1ccoc1)C2 | Mtb glucose medium: 1.995% & 1.893%; Mtb cholesterol medium: -10.83%
- CCc1cc(N2CCC(N3CCSCC3)CC2)n2nccc2n1 | Mtb glucose medium: -11.48%; Mtb cholesterol medium: 9.731%
- CCCSCC(=O)N1C[C@@H](NC(C)=O)[C@H](c2ccc(OC)cc2)C1 | Mtb glucose medium: 2.41% & -7.769%; Mtb cholesterol medium: -0.03186%
- Cc1ccsc1CN1CCC(c2cc(C(C)C)n[nH]2)CC1 | Mtb glucose medium: -22.86%; Mtb cholesterol medium: -19.45%
- CN(C(=O)Cc1ccc(NC(=O)NC2CCC2)cc1)c1ccccc1 | Mtb glucose medium: -23.32% & 8.316%; Mtb cholesterol medium: -3.13%
- O=C(O)C(F)(F)F.O=C1NCCN(CC2CC2)C12CCN(Cc1ccccc1)CC2 | Mtb glucose medium: -23.06%; Mtb cholesterol medium: -10.24%
- [H][C@@]12C[C@@H](O)C[C@]1([H])CN(C(=O)c1cc(C3CCCCC3)no1)C2 | Mtb glucose medium: 26.82%; Mtb cholesterol medium: 31.16%
- CCc1ccc(C(=O)N2CCC(N(C)C(=O)OC(C)(C)C)C2)o1 (stereo unspecified) | Mtb glucose medium: 40.49%; Mtb cholesterol medium: 18.03%
- Cc1nn(C)c(N(C)C)c1CNC(C)c1cccnc1 (stereo unspecified) | Mtb glucose medium: 9.269% & 1.623%; Mtb cholesterol medium: 8.679%
- O=C(c1ccc(-c2ccc(O)nc2)s1)N1CCCCCC1 | Mtb glucose medium: 44.99%; Mtb cholesterol medium: 11.92%
- CC(C)c1cc(=O)[nH]c(-c2ccccc2CN2CCCC2C)n1 (stereo unspecified) | Mtb glucose medium: -6.591% & -31.9%; Mtb cholesterol medium: -14.42%
- Cc1cc(C(=O)N(C)S(C)(=O)=O)ccc1F | Mtb glucose medium: -12.72%; Mtb cholesterol medium: -5.473%
- COc1cccc(Cn2cc(N3C(=O)CCC3=O)cn2)c1 | Mtb glucose medium: 4.729%; Mtb cholesterol medium: -7.828%
- CCCc1noc(C(C)N2CCN(c3ccc(C#N)cn3)CC2)n1 (stereo unspecified) | Mtb glucose medium: 29.37%; Mtb cholesterol medium: 14.39%

Once more, the final 3:

| SMILES | Mtb glucose medium | Mtb cholesterol medium |
|---|---|---|
| `Cc1cc(C(=O)N(C)S(C)(=O)=O)ccc1F` | -12.72 | -5.473 |
| `COc1cccc(Cn2cc(N3C(=O)CCC3=O)cn2)c1` | 4.729 | -7.828 |
| `CCCc1noc(C(C)N2CCN(c3ccc(C#N)cn3)CC2)n1` (stereo unspecified) | 29.37 | 14.39 |

Data taken from ChEMBL document CHEMBL3988442, “University of Dundee, Small-Polar-MMV Screening Library” (2021).